Assay [1] concerns the target MBD3-GFP (mouse) (UniProt Q9Z2D8). Kind of assay: affinity purification with mass spectrometry; purification of MBD3-GFP from the ESC nuclear pellet fraction left after nuclear extraction, solubilised in RIPA buffer with benzonase (tightly chromatin-bound NuRD).
Assay [2] has the same target. Kind of assay: affinity purification with mass spectrometry; label-free GFP pulldown in triplicate: MBD3-GFP held on GFP-Trap beads from 2 mg ESC nuclear extract; Buffer C with 300 mM NaCl, 0.1% NP-40, 50 ug/mL ethidium bromide; on-bead digestion, nLC-MS/MS.

By UniProt entry, the sequences of proteins in these tests, tags left out.
UniProt Q9Z2D8: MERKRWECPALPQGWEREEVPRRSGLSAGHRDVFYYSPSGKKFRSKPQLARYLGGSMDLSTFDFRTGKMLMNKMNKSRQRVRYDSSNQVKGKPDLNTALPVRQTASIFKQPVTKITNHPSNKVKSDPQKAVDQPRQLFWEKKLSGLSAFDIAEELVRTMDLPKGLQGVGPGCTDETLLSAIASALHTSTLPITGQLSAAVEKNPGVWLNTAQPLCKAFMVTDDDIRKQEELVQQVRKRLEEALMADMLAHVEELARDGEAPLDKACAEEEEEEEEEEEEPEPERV

This passage reports binding results from publication PMC6214896.

No constants are given. Whether binding was seen depends on the method and setting. In cells and extracts the contact can be indirect. Here binding means that the protein was enriched with, or labelled near, the bait; the list need not be complete.

B1: zinc finger protein 296 (ZFP296) (protein, UniProt E9Q6W4 1-445)
chain: MSRRKAGRVPRRVDPDTDTDIEMPDLVMDVKPDLDLRSLAQGPWIARDMPISDVKRQLQTASRPLGAPSTCAPRMPLSSKSSDRQPWTDKHPDLLTCGRCGKIFPLGAIIAFMDHKKQGCQLLQVSDPISESKELKALSCLQCGRQYTSPWKLLCHAQWDHGLCIYQTQHLDTPEAPLLGLAEVAAAMSAVAVVAPVESKPPPVSSAARRSPTCDVCKKTLSSFSNLKVHMRSHTGERPYSCDQCSYACAQSSKLNRHKKTHRQLAPGSPSTSASSRGVSPAAPPEPAAYAAAPASTLPSQTVEKAGAAATAGVQEPGAPGSGAQGGPGFVGWGAPAKVERTDPVKIEKTAPRKSHGPGGKCEFCGKSFTNSSNLTVHRRSHTGERPYTCDQCPYACAQSSKLNRHRRTHGLGTGKTVKCPHCLVPFGLQATLDKHLRQKHPEMA
On to B1, for which the binding entry with MBD3-GFP (mouse) [1] and with MBD3-GFP (mouse) [2] was “binds” each time.
